To fix the notation:
B1: Venus-MBNL1 (protein, UniProt Q9NR56-5 1-382)
chain: MAVSVTPIRDTKWLTLEVCREFQRGTCSRPDTECKFAHPSKSCQVENGRVIACFDSLKGRCSRENCKYLHPPPHLKTQLEINGRNNLIQQKNMAMLAQQMQLANAMMPGAPLQPVPMFSVAPSLATNASAAAFNPYLGPVSPSLVPAEILPTAPMLVTGNPGVPVPAAAAAAAQKLMRTDRLEVCREYQRGNCNRGENDCRFAHPADSTMIDTNDNTVTVCMDYIKGRCSREKCKYFHPPAHLQAKIKAAQYQVNQAAAAQAAATAAAMGIPQAVLPPLPKRPALEKTNGATAVFNTGIFQYQQALANMQLQQHTAFLPPGSILCMTPATSVVPMVHGATPATVSAATTSATSVPFAATATANQIPIISAEHLTSHKYVTQM
B2: Myc-QK (protein, UniProt Q91XU1 1-341)
chain: MVGEMETKENPNPTPDYLMQLMNDKKLMSSLPNFCGIFNHLERLLDEEISRVRKDMYNDTLNGSTEKRSAELPDAVGPIVQLQEKLYVPVKEYPDFNFVGRILGPRGLTAKQLEAETGCKIMVRGKGSMRDKKKEEQNRGKPNWEHLNEDLHVLITVEDAQNRAEIKLKRAVEEVKKLLVPAAEGEDSLKKMQLMELAILNGTYRDANIKSPALAFSLAATAQAAPRIITGPAPVLPPAALRTPTPAGPTIMPLIRQIQTAVMPNGTPHPTAAIVPPGPEAGLIYTPYEYPYTLAPATSILEYPIEPSGVLGAVATKVRRHDMRVHPYQRIVTADRAATGN
B3: QK5 with deletion of 285–293 (protein, UniProt Q91XU1)
chain: MVGEMETKENPNPTPDYLMQLMNDKKLMSSLPNFCGIFNHLERLLDEEISRVRKDMYNDTLNGSTEKRSAELPDAVGPIVQLQEKLYVPVKEYPDFNFVGRILGPRGLTAKQLEAETGCKIMVRGKGSMRDKKKEEQNRGKPNWEHLNEDLHVLITVEDAQNRAEIKLKRAVEEVKKLLVPAAEGEDSLKKMQLMELAILNGTYRDANIKSPALAFSLAATAQAAPRIITGPAPVLPPAALRTPTPAGPTIMPLIRQIQTAVMPNGTPHPTAAIVPPGPEAGLILAPATSILEYPIEPSGVLGAVATKVRRHDMRVHPYQRIVTADRAATGN

Results are given in words; binding and its absence hold for the method and conditions named. In cells and extracts the contact can be indirect. Some results given as binding are weak or reduced against the parent protein; the word gives no strength. Where a sequence is shown, tags or fusion partners need not be part of it.

In the assay the target is FLAG-RBPMSA (wild type) (rat). Put plainly: co-IP; pairs of epitope-tagged proteins co-expressed in HEK293T; 1 mg lysate in RIPA buffer (150 mM NaCl, 1% Triton X-100, 0.1% SDS, 50 mM Tris pH 7.5) with benzonase; anti-FLAG immunoprecipitation of FLAG-RBPMS overnight at 4°C, Protein G Dynabeads; western blot.
As for B1, the binding entry is listed as “binds”.
The entry for B2 is “binds”.
Consider B3, for which the binding result is given as “binds”.

The values above are taken from PMC12721327.
